Laboratory results: article PMC10163288
The other results are listed elsewhere or left out.

B1: il2ra_site1_2b5i_normal_mot_HHH_b2_00525_af2_000000142_0001_43_56_H_._HHH_b2_02436_0001_0000400006_0000001_0_af2pred_dldesign_0_af2pred (protein)
chain: SSSSSDLRAVFEEVSRLIAEAREEEDPERRQELLDRARELAEAAKSRFLLRMVDFERESLSSSSS
B2: il2ra_site1_1z92_normal_mot_HHH_b1_03515_000000289_0001_1_19_H_._HHH_b1_01554_af2_0001_0000200013_0000001_0 (protein)
chain: SSSSSSEHAARAIVKVLVRVARLSEEQEKELQELAEELVKRGYSLLEIIKILDRVAVELSSSSSS
B3: il2ra_site1_2b5i_normal_mot_HHH_b2_06298_af2_000000056_0001_1_18_H_._HHH_b1_00536_0001_0000700045_0000001_0_af2pred_dldesign_0_af2pred (protein)
chain: SSSSSLGRLARRLLEEAEKARKNKDYEKLKELQKEVSKLVEKYKSKLLKAVLDAVQEALEESSSS
B4: il2ra_site1_1z92_normal_mot_HHH_b2_00141_000000217_0001_1_20_H_._9e5b67f2fe50fe8120620fffc4d177d6_0001_0001_0000200026_0000001_0 (protein)
chain: SLVEQIAEELERDPRFEEELARLVLKDAGGDPRFAKQYLKAIAKRAGIPPEVLERLEEIVEELVR
B5: il2ra_site1_2b5i_sap_24_mot_HHH_b1_05843_af2_000000178_0001_42_56_H_._66c2fca85847babee3b8944584cfd08f_0001_1_af2_0001_0000200021_0000001_0_0001_af2pred_0001_af … (protein)
chain: SSSSSSSKAELLREAQELLENGNPEEAQEVLEEAIERAKEKGNERTQRSLEFLLEDIRLSSSSSS
B6: il2ra_site2_3nfp_sap_18_mot_HHH_b1_03703_af2_000000206_0001_39_56_H_._HHH_b1_00697_0001_0000100006_0000001_0_0001 (protein)
chain: SSSSDEEEVEELLKELEKAIENNDPELVQRLLHRLAQLLMRIQDLEAYRVVREAYEFLDRKSSSS
B7: il2ra_site1_3nfp_sap_10_mot_HHH_b2_05615_000000234_0001_23_39_H_._HHH_b1_05775_0001_0000200011_0000001_0_0001_af2pred_0001_af2pred (protein)
chain: SSSSSSAREEVEELLEEVEELFKQGNPKEADRVFKEAARLALKANDEEAEELLEKFARNISSSSS
B8: il2ra_site2_2erj_normal_mot_HHH_b2_01353_af2_000000049_0001_23_39_H_._HHH_b1_00778_0001_0001200048_0000001_0 (protein)
chain: SSSDKEEAEELYEEAKELLERGNPEEALRVLRRASTLAFESGDEELFNRLSELVEKILRLGSSSS
B9: il2ra_site2_2erj_normal_mot_af86707857d369f3e1d85dcabc5f9321_0001_000000201_0001_14_29_H_._HHH_b2_03838_af2_0001_0000200004_0000001_0 (protein)
chain: SSSSSSSEEERAEELTEEAKEIEDPEEALRVLSEAFELAYRVGDHRLAAEVIELAHRLNSSSSSS
B10: il2ra_site1_3nfp_normal_mot_HHH_b1_01159_af2_000000107_0001_1_20_H_._HHH_b1_03088_af2_0001_0000100003_0000001_0 (protein)
chain: SSSSSDSERLEKLFREAFELAQNGNPEEAKEVLEEALELAERLGDRYTVRSLRATLRLVESSSSS
B11: il2ra_site2_2erj_normal_mot_HHH_b2_07522_000000274_0001_22_39_H_._b0b48449b8979d840ab1151e5fe11a36_0001_af2_0001_0000100003_0000001_0 (protein)
chain: DEELERLAELLRRGDPEAYRLLFELLIRIDNGDPEAEEKLREAIRLAEELGDEAVVDSLEAILRA
B12: il2ra_site1_3nfp_normal_mot_HHH_b1_05693_af2_000000134_0001_1_17_H_._22f244968cb0c360d358227666d1b6ad_0001_0001_0000100006_0000001_0 (protein)
chain: SARFAHLVLKAAARAGVPWREIARIIREADRLAGGDPRKLEELVKELLEEEDPEVYRILEELEER
B13: il2ra_site1_2b5i_normal_mot_HHH_b1_08504_af2_000000158_0001_42_54_H_._HHH_b1_06962_0001_0000600032_0000001_0_af2pred_dldesign_0_af2pred (protein)
chain: SSSSSAEDRVYDLFDEALRLHKAGKKEEAKKLLEEALALAQALGDAKLVAEVQAFLDWLESSSSS
B14: il2ra_site1_1z92_normal_mot_HHH_b1_03134_af2_000000003_0001_1_20_H_._a98962bae65c5f3da72e56aefd5e2b4a_0001_0001_0000100016_0000001_0_af2pred_0001_af2pred_1 (protein)
chain: GPEEFLEEQLRRSGVPPEEVEEILELIKRLAQGDPEAKRLLEEILKRLKEEGDPAAKVVRAALLA
B15: il2ra_site1_1z92_sap_18_mot_HHH_b2_04375_000000267_0001_42_56_H_._9983d6beee032e3819f467d055548630_0001_1_0001_0000100006_0000001_0_0001_af2pred_0001_af2pred (protein)
chain: SSSSSKEKLERDVRWLLELAKKARSPRAREIALEFARRDAKLANDPELERLVEEVEEELNSSSSS
B16: il2ra_site1_1z92_normal_mot_HHH_b2_01902_af2_000000252_0001_25_40_H_._HHH_b1_07621_0001_0000200025_0000001_0_af2pred_0001_af2pred (protein)
chain: SSSDTNELIRFALEVVIELAEELGLDEEQAQELAKLAAKLAARGLSEEEIKEELQKLAEELSSSS
B17: il2ra_site1_1z92_sap_14_mot_HHH_b2_05238_af2_000000252_0001_38_55_H_._HHH_b2_07857_0001_0000100006_0000001_0_0001 (protein)
chain: SSSSDERLERAARVVVKMLVRMNRLSEEDEEKLEELARELVERGVSFEELLKILDELAAELSSSS
B18: il2ra_site2_3nfp_sap_22_mot_HHH_b2_06150_000000230_0001_39_53_H_._HHH_b2_00046_0001_0000400027_0000001_0_0001 (protein)
chain: SDEESAEYIEAALRLAKEAARDPRIQELIEEVLEEFEKAEEKNDEHALSEVTQKAMELAELAARS
B19: il2ra_site1_3nfp_normal_mot_eb5a5eebac1e5153f932cc6c3f4b2787_0001_af2_000000065_0001_18_33_H_._437ce1e4c44253f5d945988760af7e00_0001_af2_0001_0000600037_0000001 … (protein)
chain: DNQEIARILTELVRRVPPEVAELLYEVMRLLVKGDPEQAEKVLEEILELVGDPLVEELLELVRKL
B20: il2ra_site2_2erj_normal_mot_HHH_eva_0050_af2_000000198_0001_43_62_H_._HHH_b2_03364_0001_0000100003_0000001_0 (protein)
chain: SSSSDEELRELYELLNRLLHAISRGDEELAKELTEEVQERAKENDSPVVEKVAEHLLRLLTSSSS
B21: il2ra_site2_3nfp_sap_15_mot_HHH_b2_06897_000000042_0001_40_57_H_._493fd54309310d9249ba1f7ad6a52a72_0001_1_af2_0001_0000300025_0000001_0_0001 (protein)
chain: SSSSSEFERRLEELLKELEELVRQGNDEEFRRVAAEIAHLAFEGNDSEAYFRLAELAYEFISSSS
B22: il2ra_site1_2b5i_normal_mot_HHH_b1_01507_000000251_0001_20_36_H_._HHH_b2_06566_af2_0001_0000100007_0000001_0_af2pred_dldesign_0_af2pred (protein)
chain: SSSSNPELAKRIREAVEEATRLFAAGREEEARAVLEAARRLAEENNAHGWARFLEACLKSISSSS
B23: il2ra_site2_2erj_sap_22_mot_HHH_b1_05634_000000106_0001_21_37_H_._HHH_b2_05401_0001_0000100002_0000001_0_0001 (protein)
chain: SSSSLREAYELAARALARLAEAAENNDEELLERIAEEVQKELKELGTPDAAEMLEEESEAQSSSS
B24: il2ra_site1_3nfp_sap_14_mot_7a4252a17c26caee427851ffd8bc664f_0001_000000055_0001_1_12_H_._HHH_b1_02810_af2_0001_0000200009_0000001_0_0001_af2pred_0001_af2pred_1 (protein)
chain: SSSSSSAVHEFTELLRRAREALKEGDEELVEEILERLRELAERRNDPIARRAVEWLERKGSSSSS

These binders were tested against il2ra, P01589 (assay: yeast display titration).

Apparent Kd, inactive:
B1 no binding seen, B2 no binding seen, B3 no binding seen, B4 no binding seen, B5 no binding seen, B6 no binding seen, B7 no binding seen, B8 no binding seen, B9 no binding seen, B10 no binding seen, B11 no binding seen, B12 no binding seen, B13 no binding seen, B14 no binding seen, B15 no binding seen, B16 no binding seen, B17 no binding seen, B18 no binding seen, B19 no binding seen, B20 no binding seen, B21 no binding seen, B22 no binding seen, B23 no binding seen, B24 no binding seen
